# PubChem BioAssay AID1259405 | NCATS | 2018
# Assay: 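Knock-downs that lift recombinant protein yield in hamster ovary cells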 (primary screen)
# Cell system: Chinese hamster CHO-K1 ovary cells with stable secreted eGFP expression
# Reagents: single siRNA against mouse genes, 0.8 pmol siRNA per well (2 µl of 400 nM stock)
# Timing: 3 days
# Measurement: 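Per-well intracellular GFP measured by laser scanning cytometry, plus viability from ATP luminescence, each relative to plate median of non-targeting control wells, in %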
# Reading the numbers: GFP, % of control: higher = more GFP per well, higher productivity; viability (ATP), % of control: higher = more viable cells (more ATP)
# Call rule: 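a knock-down is called active if GFP reaches 120% or more of non-targeting control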
# The deposit covers about 50,000 reagents; shown is a part drawn at random. Of all reagents, about 4,000 (8%) got an active call. 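Mouse siRNA library applied to hamster cells; one well for each siRNA.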 Unmarked entries are inactive. The numbers tell different reagents against one gene apart. Reagent sequences are not shown.
gene symbol,siRNA no.,"GFP, % of control","viability (ATP), % of control"
Olig1 (oligodendrocyte transcription factor 1),1,77.3,91.1
Olig1 (oligodendrocyte transcription factor 1),2,53,69.1
Olig1 (oligodendrocyte transcription factor 1),3,60,93.1
Ubxn7 (UBX domain protein 7),1,67.7,32.5
Ubxn7 (UBX domain protein 7),2,72.7,70.3
Ubxn7 (UBX domain protein 7),3,70.3,111
"C1qb (complement component 1, q subcomponent, beta polypeptide)",1,66.6,73.9
"C1qb (complement component 1, q subcomponent, beta polypeptide)",2,42.6,33.1
"C1qb (complement component 1, q subcomponent, beta polypeptide)",3,97.6,57.2
Mief1 (mitochondrial elongation factor 1),1,69.5,83.7
Mief1 (mitochondrial elongation factor 1),2,87.6,133
Mief1 (mitochondrial elongation factor 1),3,81.3,72
Slc24a3,1,91.1,96.1
Slc24a3,2,21.5,25.7
Slc24a3,3,91.2,85.4
"Strn3 (striatin, calmodulin binding protein 3)",1,53.5,74.6
"Strn3 (striatin, calmodulin binding protein 3)",2,73.2,90.7
"Strn3 (striatin, calmodulin binding protein 3)",3,164 (active),158
Tlnrd1 (talin rod domain containing 1),1,103,65.5
Tlnrd1 (talin rod domain containing 1),2,62.3,71.5
Tlnrd1 (talin rod domain containing 1),3,126 (active),103

Records above whose gene name begins with O or o (3):
gene symbol,siRNA no.,"GFP, % of control","viability (ATP), % of control"
Olig1 (oligodendrocyte transcription factor 1),1,77.3,91.1
Olig1 (oligodendrocyte transcription factor 1),2,53,69.1
Olig1 (oligodendrocyte transcription factor 1),3,60,93.1

The results go on.
gene symbol,siRNA no.,"GFP, % of control","viability (ATP), % of control"
Fgf22 (fibroblast growth factor 22),1,83,69.8
Fgf22 (fibroblast growth factor 22),2,101,71.5
Fgf22 (fibroblast growth factor 22),3,33.7,43.5
Rbl1 (RB transcriptional corepressor like 1),1,72.7,85.2
Rbl1 (RB transcriptional corepressor like 1),2,58.1,56.9
Rbl1 (RB transcriptional corepressor like 1),3,102,104
Kif21a (kinesin family member 21A),1,72.4,87.9
Kif21a (kinesin family member 21A),2,52.5,55
M1ap (meiosis 1 associated protein),1,62.3,84.4
M1ap (meiosis 1 associated protein),2,0,332
M1ap (meiosis 1 associated protein),3,88.1,69.8
Chic2 (cysteine-rich hydrophobic domain 2),1,94.4,85.6
Chic2 (cysteine-rich hydrophobic domain 2),2,40,76.1
Chic2 (cysteine-rich hydrophobic domain 2),3,96.1,107
